This note sets out measurements from patent US9725402B2, “Nitroso compounds as nitroxyl donors and methods of use thereof” (priority 2008, dated 2017).

The structures appear in SMILES notation.

This data set is described as follows: HNO production via N2O quantification (GC headspace), with and without Pig Liver Esterase. It counts as physicochemical. As to conditions: with and also without Pig Liver Esterase (PLE), 37° C., 90 minutes, PBS buffer pH 7.4.
On to `O=NC1(OC(=O)CC(F)(F)F)CCOCC1` [Compound 16, 4-Nitrosotetrahydro-2H-pyran-4-yl 3,3,3-trifluoropropanoate], for which the “HNO production (N2O quantification)” value is reported as “detectable levels of HNO”.
With `CC(=O)OCC(C)(COC(C)=O)C(=O)OC1(N=O)CCOCC1` [Compound 35, 2-Methyl-2-((4-nitrosotetrahydro-2H-pyran-4-yloxy)carbonyl)propane-1,3-diyl diacetate] the entry was “detectable levels of HNO”; with `CC(=O)OC1(N=O)CCN(C)CC1` [Compound 1, 1-Methyl-4-nitrosopiperidin-4-yl acetate], “detectable levels of HNO”; with `O=NC1(OC(=O)C(F)(F)Cl)CCOCC1` [Compound 22, 4-Nitrosotetrahydro-2H-pyran-4-yl 2-chloro-2,2-difluoroacetate], “detectable levels of HNO”.
Consider `CC(=O)OCC(COC(C)=O)CC(=O)OC1(N=O)CCOCC1` [Compound 36, 4-Nitrosotetrahydro-2H-pyran-4-yl 4-acetoxy-3-(acetoxymethyl)butanoate], for which the “HNO production (N2O quantification)” value is listed as “detectable levels of HNO”.
Turning to `CC(=O)OCC(COC(C)=O)CC(=O)OC1(N=O)CCN(C)CC1` [Compound 49, 1-Methyl-4-nitrosopiperidin-4-yl 4-(acetyloxy)-3-[(acetyloxy)methyl]butanoate], the “HNO production (N2O quantification)” value is reported as “detectable levels of HNO”.
Turning to `COC(=O)[C@H](CC(=O)OC1(N=O)CCOCC1)NC(=O)OCc1ccccc1` [Compound 37, 1-Methyl 4-(4-nitrosotetrahydro-2H-pyran-4-yl) N-[(benzyloxy)carbonyl]aspartate], the “HNO production (N2O quantification)” value is “detectable levels of HNO”.
The entry for `O=NC1(OC(=O)CCC(F)(F)F)CCOCC1` [Compound 17, 4-Nitrosotetrahydro-2H-pyran-4-yl 4,4,4-trifluorobutanoate] is “detectable levels of HNO”.
As to `O=NC1(OC(=O)C(Cl)(Cl)Cl)CCOCC1` [Compound 20, 4-Nitrosotetrahydro-2H-pyran-4-yl 2,2,2-trichloroacetate], the “HNO production (N2O quantification)” value is “detectable levels of HNO”.
`CC(=O)OC1(N=O)CCSC1` (stereo not shown) [Compound 5, 3-Nitrosotetrahydrothiophen-3-yl acetate]: the “HNO production (N2O quantification)” value is “detectable levels of HNO”.
The entry for `O=NC1(OC(=O)C(F)(F)C(F)(F)F)CCCCC1` [Compound 18, 1-Nitrosocyclohexyl 2,2,3,3,3-pentafluoropropanoate] is “detectable levels of HNO”; for `O=NC1(OC(=O)C(F)(F)F)CCOCC1` [Compound 15, 4-Nitrosotetrahydro-2H-pyran-4-yl 2,2,2-trifluoroacetate] it is “detectable levels of HNO”.
Turning to `CCCCOP(=O)(OCCCC)OC1(N=O)CCCCC1` [Compound 26, Dibutyl 1-nitrosocyclohexyl phosphate], the “HNO production (N2O quantification)” value is listed as “detectable levels of HNO”.
With `CC(=O)N[C@@H](Cc1ccccc1)C(=O)OC1(N=O)CCOCC1` [Compound 23, (S)-4-Nitrosotetrahydro-2H-pyran-4-yl 2-acetamido-3-phenylpropanoate] the entry was “detectable levels of HNO”; with `CC(=O)OCCCC(=O)OC1(N=O)CCOCC1` [Compound 44, 4-Nitrosotetrahydro-2H-pyran-4-yl 4-acetoxybutanoate], “detectable levels of HNO”; with `CC(=O)OC1(N=O)CC(C)(C)N(C)C(C)(C)C1` [Compound 7, 1,2,2,6,6-Pentamethyl-4-nitrosopiperidin-4-yl acetate], “detectable levels of HNO”.
As to `CC(=O)OC[C@H](OC(C)=O)[C@H](OC(C)=O)C(=O)OC1(N=O)CCOCC1` [Compound 50, 4-Nitrosotetrahydro-2H-pyran-4-yl (2S,3S)-2,3,4-tris(acetyloxy)butanoate], the “HNO production (N2O quantification)” value is listed as “detectable levels of HNO”.
With `CCOP(=O)(OCC)OC1(N=O)CCCCC1` [Compound 25, Diethyl 1-nitrosocyclohexyl phosphate] the entry was “detectable levels of HNO”; with `O=NC1(OC(=O)CNC(=O)c2ccccc2)CCOCC1` [Compound 31, 4-Nitrosotetrahydro-2H-pyran-4-yl 2-benzamidoacetate], “detectable levels of HNO”.
On to `CC(=O)OCC(=CC(=O)OC1(N=O)CCOCC1)COC(C)=O` [Compound 48, 4-Nitrosotetrahydro-2H-pyran-4-yl 4-(acetyloxy)-3-[(acetyloxy)methyl]but-2-enoate], for which the “HNO production (N2O quantification)” value is recorded as “detectable levels of HNO”.
The entry for `CC(C)C(=O)OC1(N=O)CCCCC1` [Compound 10, 1-Nitrosocyclohexyl isobutyrate] is “detectable levels of HNO”; for `CC(C)(C)OC(=O)N[C@@H](CC(=O)OC1(N=O)CCOCC1)C(=O)OC(C)(C)C` [Compound 38, 1-tert-Butyl 4-(4-nitrosotetrahydro-2H-pyran-4-yl) N-(tert-butoxycarbonyl)aspartate] it is “detectable levels of HNO”; for `O=NC1(OC(=O)CCC2CCC(=O)O2)CCOCC1` (stereo not shown) [Compound 33, 4-Nitrosotetrahydro-2H-pyran-4-yl 3-(5-oxotetrahydrofuran-2-yl)propanoate] it is “detectable levels of HNO”.
The entry for `O=NC1(OC(=O)C(F)(F)C(F)(F)F)CCOCC1` [Compound 21, 4-Nitrosotetrahydro-2H-pyran-4-yl 2,2,3,3,3-pentafluoropropanoate] is “detectable levels of HNO”; for `CC(=O)OC1(N=O)CC2CCC(C1)N2C` (stereo not shown) [Compound 39, 8-Methyl-3-nitroso-8-azabicyclo[3.2.1]oct-3-yl acetate] it is “detectable levels of HNO”.
